# Results from PubChem BioAssay AID528 (NMMLSC, 2006).
# Sequences of proteins named here, by UniProt entry; tags and fusion partners are left off.
# UniProt P13612, whole entry, looked up: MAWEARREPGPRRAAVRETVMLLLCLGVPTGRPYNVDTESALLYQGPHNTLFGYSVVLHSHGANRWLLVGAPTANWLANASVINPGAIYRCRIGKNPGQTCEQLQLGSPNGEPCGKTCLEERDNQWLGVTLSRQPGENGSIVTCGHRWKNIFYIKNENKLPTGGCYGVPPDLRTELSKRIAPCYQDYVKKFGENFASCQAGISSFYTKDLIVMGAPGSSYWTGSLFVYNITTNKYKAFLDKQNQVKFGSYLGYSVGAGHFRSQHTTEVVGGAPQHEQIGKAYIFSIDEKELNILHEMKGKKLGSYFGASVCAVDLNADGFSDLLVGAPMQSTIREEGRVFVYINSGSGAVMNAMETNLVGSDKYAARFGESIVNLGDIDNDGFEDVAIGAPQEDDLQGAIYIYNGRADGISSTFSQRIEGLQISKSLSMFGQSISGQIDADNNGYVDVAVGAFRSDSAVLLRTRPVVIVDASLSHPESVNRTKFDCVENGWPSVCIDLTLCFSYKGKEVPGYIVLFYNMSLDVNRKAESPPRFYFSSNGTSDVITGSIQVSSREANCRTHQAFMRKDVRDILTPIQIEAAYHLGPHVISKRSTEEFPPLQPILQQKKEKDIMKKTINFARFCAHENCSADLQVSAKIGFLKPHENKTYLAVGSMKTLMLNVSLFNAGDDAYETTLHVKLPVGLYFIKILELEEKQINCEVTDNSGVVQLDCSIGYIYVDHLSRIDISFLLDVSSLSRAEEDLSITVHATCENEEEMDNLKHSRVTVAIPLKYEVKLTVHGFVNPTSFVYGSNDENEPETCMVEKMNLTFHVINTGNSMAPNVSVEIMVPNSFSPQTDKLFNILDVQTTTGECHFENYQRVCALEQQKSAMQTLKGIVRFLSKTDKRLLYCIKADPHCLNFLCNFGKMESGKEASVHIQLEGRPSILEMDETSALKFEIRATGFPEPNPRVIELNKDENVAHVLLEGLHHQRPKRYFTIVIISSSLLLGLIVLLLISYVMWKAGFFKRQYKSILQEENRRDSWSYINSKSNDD
# Fewer than 10 of roughly 24,000 compounds were called active. Inconclusive means that the source gave no clear call. Such entries were picked first, then a sample of the others.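 Rule for the calls: active = fluorescent ligand binding to cells raised by more than 40% of the manganese-induced maximum; inconclusive = compound's own fluorescence above 85% of the ligand control signal; inactive = the rest.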
# Biological target: Integrin alpha-4 (Homo sapiens) (UniProt P13612)
# Assay: enhancers of LDV-FITC binding to VLA-4 integrin, primary screen, Jurkat cells, flow cytometry (AID 528);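 for activation: 0% = ligand binding without compound and 100% = manganese-stimulated maximal binding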
# Conditions: stronger effect = higher value, screened at 10 µM (by protocol)
row,SMILES,activation
1,CCOC(=O)N1CCN(c2c(NCCN(C)Cc3ccccc3)c(=O)c2=O)CC1,inactive: -4.3%
2,CCCNC(=O)c1c(N)n(-c2cc(OC)cc(OC)c2)c2nc3ccccc3nc12,inactive: -20.5%
3,N#CCSc1nc2cc(C(=O)N3CCC(C(N)=O)CC3)ccc2c2nc3ccccc3n12,inconclusive
4,Cc1ccc(-c2nc(CS(=O)(=O)CC(=O)NC3CCCCC3C)c(C)o2)cc1 (stereo unspecified),inconclusive
5,CC(C)C(c1nnnn1C1CCCC1)N1CCN(C(=O)c2ccco2)CC1 (stereo unspecified),inactive: 1%
6,Cn1c(=O)c(C(=O)Nc2cccnc2)c(O)c2ccccc21,inconclusive
7,COc1ccc(C2C(C(=O)N3CCN(c4ccccn4)CC3)CC(=O)N2c2ccc(OC)cc2)cc1 (stereo unspecified),inconclusive
8,Cn1c(C(=O)NCCCN2CCCC2=O)cc2c(=O)n3ccccc3nc21,inactive: -4%
9,O=C(Nc1ccc(-n2nncc2-c2ccco2)cc1)c1ccc(F)cc1,inconclusive
10,O=C1c2cccc3c(Cl)ccc(c23)C(=O)N1O,inconclusive
11,COc1cc2c(C(=O)Nc3ccc4c(c3)OCO4)cn(CC(C)C)c(=O)c2cc1OC,inconclusive
12,Cc1ccc(CCNC(=O)C2CCCN(c3nc4ccccc4o3)C2)cc1 (stereo unspecified),inactive: -7%
13,c1ccc(C2COC(c3cccs3)=N2)cc1 (stereo unspecified),inconclusive
14,Cc1c(C#N)c(N)c(C(=O)c2ccccc2)n1Cc1ccccc1,inconclusive
15,Cc1c(O)c(CN2CCCC(C)C2)cc2c3c(c(=O)oc12)CCC3 (stereo unspecified),inactive: -8.5%
16,COc1ccc(-c2cc(C(F)(F)F)nc(N3CCCCCC3)n2)cc1,inactive: 2%
17,O=C(NCCN1CCN(c2ccccc2F)CC1)c1cccn2c(=O)c3ccccc3nc12,inconclusive
18,O=C(c1ccc(S(=O)(=O)N2CCOCC2)cc1)N1CCN=C1SCc1cccnc1,inconclusive
19,CC(=O)N1C(=O)C(=C2C=C(C)OC(C)=C2)c2ccccc21,inactive: 0%
20,Cc1ccc(N2CCN(C(=O)C3CCN(S(=O)(=O)c4cccc5nsnc45)CC3)CC2C)cc1 (stereo unspecified),inactive: 1%
21,COc1ccc2c(CCNC(=O)c3ccco3)c[nH]c2c1,inconclusive
22,O=C(c1ccco1)N1CCN(C(=O)c2cccn3c(=O)c4c5c(sc4nc23)CCCC5)CC1,inconclusive
23,Cn1c(C(=O)NCCCN2CCOCC2)cc2c(=O)n(C)c3ccccc3c21,inactive: 2%
24,CC1CC(C)CN(CCCNC(=O)CNC(=O)Cn2ccc3ccccc3c2=O)C1 (stereo unspecified),inactive: 0%

# Exported with tabs: 3 of the compounds above
row	SMILES	activation
6	Cn1c(=O)c(C(=O)Nc2cccnc2)c(O)c2ccccc21	inconclusive
17	O=C(NCCN1CCN(c2ccccc2F)CC1)c1cccn2c(=O)c3ccccc3nc12	inconclusive
22	O=C(c1ccco1)N1CCN(C(=O)c2cccn3c(=O)c4c5c(sc4nc23)CCCC5)CC1	inconclusive

# Going on with the list:

row,SMILES,activation
1,CCOC(=O)N1CCN(C(=O)CSc2nnc(-c3ccc(C(C)(C)C)cc3)o2)CC1,inconclusive
2,COc1ccccc1C1N(c2ccc(Cl)cc2)C(=O)C2CCCN21 (stereo unspecified),inconclusive
3,OCc1nc2ccccc2n1CC(O)Cn1ccc2ccccc21 (stereo unspecified),inactive: -3%
4,COc1ccc2cc3cc(C(=O)NCCN4CCN(Cc5ccccc5)CC4)oc3nc2c1,inconclusive
5,Brc1ccc2ncnc(Nc3ccc(N4CCOCC4)cc3)c2c1,inconclusive
6,Cc1cc(C)n2nc(S(=O)(=O)N(CC(C)C)CC(C)C)nc2n1,inconclusive
7,Cc1ccc2c(c1)c(C)c(C)n2CC(O)CN1CCCCC1C (stereo unspecified),inconclusive
8,CCCCCNC(=O)c1cc(S(=O)(=O)N2CCCCC2)ccc1F,inconclusive
9,CCOC(=O)c1[nH]c(C)c(C(=O)Nc2ccccc2F)c1C,inconclusive
10,COc1ccc(NC(=O)CSc2nc3ccccc3c(=O)n2CCNC(C)=O)c(OC)c1,inconclusive
11,Cc1ccc(-c2nc(CS(=O)CC(=O)NCCN3CCOCC3)c(C)o2)cc1 (stereo unspecified),inconclusive
12,CCOc1ccccc1NC(=O)C1CCCN(S(=O)(=O)c2c(C)[nH]c(=O)[nH]c2=O)C1 (stereo unspecified),inactive: 2%
13,O=c1cc(COn2nnc3ccc(C(F)(F)F)cc32)nc2sccn12,inconclusive
14,CCOC(=O)CSc1nnc(NC(=O)c2cccc(S(=O)(=O)N3CCCCC3)c2)s1,inactive: 0.5%
15,COCCN1C(=O)c2ccccc2C(C(=O)NCc2ccco2)C1c1c[nH]c2ccccc12 (stereo unspecified),inactive: 0.5%
16,CCOC(=O)N1CCN(C(=O)c2ccc3c(=O)n(CCC4=CCCCC4)c(=O)[nH]c3c2)CC1,inconclusive
17,Cc1cccc(-n2nnc(C(=O)NCc3ccc4c(c3)OCO4)c2N)c1,inconclusive
18,CCOc1nc(-c2ccccc2)ccc1-c1noc(-c2ccc(OC)c(OC)c2)n1,inactive: 6%
19,CCOC(=O)C1=C(C)N=C2SC(CC)C(=O)N2C1c1cccc(F)c1 (stereo unspecified),inconclusive
20,COC(=O)C(NS(=O)(=O)c1ccc(NC(C)=O)cc1)C(C)C (stereo unspecified),inconclusive
21,O=C(CCN1C(=O)C2C3C=CC(C3)C2C1=O)N1CC(=O)N(CCc2ccccc2)C(=O)C1 (stereo unspecified),inconclusive
22,N#Cc1c(NC(=O)COC(=O)C2CC3C=CC2C3)oc(-c2ccccc2)c1-c1ccccc1 (stereo unspecified),inconclusive
23,CCC(C)(C(=O)NC1CCCCC1)N(Cc1ccco1)C(=O)c1ccc2c(c1)OCO2 (stereo unspecified),inactive: -1.7%
24,CC(C)(C)n1nc2c(c1NC(=O)c1cccc(C(F)(F)F)c1)CS(=O)C2 (stereo unspecified),inactive: 4%

row,SMILES,activation
1,Clc1ccc(C2=Nn3c(nnc3-c3cccnc3)SC2)s1,inconclusive
2,O=C(NCCCN1CCOCC1)c1cc2c(=O)[nH]c3ccccc3c2s1,inconclusive
3,Cc1c(C(=O)NCCN2CCOCC2)oc2ccc(S(=O)(=O)N3CCCCCC3)cc12,inconclusive
4,Cc1nc(S(=O)(=O)NC2CCCCC2)c(C#N)c(C)c1Cl,inconclusive
5,O=C(NCC(F)(F)F)Nc1cccnc1,inconclusive
6,CCOC(=O)N1CCN(S(=O)(=O)c2cc(Cl)c(OC)cc2Cl)CC1,inconclusive
7,COc1ccc(S(=O)(=O)Cc2ccc(C(=O)N3CCN(c4cccc(C)c4)C(C)C3)o2)cc1 (stereo unspecified),inconclusive
8,COC(=O)CC1C(=O)NCCN1C(=O)NC1CCCCC1 (stereo unspecified),inactive: 1%
9,C=CCn1c(=O)c(C#N)cc2c(=O)n3ccccc3nc21,inconclusive
10,CCCCNC(=O)c1ccc2nc(-c3ccco3)c(-c3ccco3)nc2c1,inconclusive
11,COc1cccc(-c2nnc(Nc3nc4c(F)cccc4s3)o2)c1,inconclusive
12,Cc1cc2c(c(=O)n1C)C(Cc1ccccc1)C(C#N)=C(N)O2 (stereo unspecified),inactive: 1%
13,Cn1cccc1Cc1nnc(SCC(=O)Nc2nccs2)n1CCc1ccccc1,inactive: 6%
14,Cc1ccc(NC(=O)CSc2nnc(Cn3c(=O)sc4ccccc43)n2C)cc1,inconclusive
15,O=c1oc(-c2ccco2)nc2ccccc12,inactive: -7.5%
16,CCOc1ccccc1C(=O)N(CN1CCCC1=O)c1ccc(C)c(Cl)c1,inactive: -6%
17,Cc1ccc(S(=O)(=O)C(C#N)c2nc3ccccc3nc2N2CCCCC2)cc1 (stereo unspecified),inconclusive
18,CCOc1ccccc1NC(=O)CN(c1ccc(C)cc1)S(=O)(=O)c1c(C)n[nH]c1C,inconclusive
19,COC(=O)c1cc2occc2n1CC(=O)Nc1ccc(C)cc1C,inconclusive
20,O=C(Cn1nnc(-c2ccc(S(=O)(=O)N3CCCC3)cc2)n1)NCC1CCCO1 (stereo unspecified),inconclusive
21,CCOC(=O)N1CCN(C(=O)Cn2ncc3ccccc32)CC1,inconclusive
22,CN(C)c1ccc(NC(=O)CSc2nc3ccccc3c(=O)n2C2CCCCC2)cc1,inconclusive
23,Cc1cc(C(F)(F)F)nc(NCc2cccnc2)n1,inconclusive
24,Oc1c(Cl)cc(Cl)c2c1NCCC2,inconclusive

# A section from the list above, for reference:
row,SMILES,activation
22,CN(C)c1ccc(NC(=O)CSc2nc3ccccc3c(=O)n2C2CCCCC2)cc1,inconclusive
23,Cc1cc(C(F)(F)F)nc(NCc2cccnc2)n1,inconclusive

# Next part:

row,SMILES,activation
1,CCOC(=O)c1ccc2nc(NC(NC(C)=O)(C(=O)OC)C(F)(F)F)sc2c1 (stereo unspecified),inconclusive
2,Cc1nc(C)c(C(=O)Nc2cccc(C)c2C)o1,inconclusive
3,NC(N)=NS(=O)(=O)c1ccc(N)cc1,inactive: -3%
4,O=c1cc(N2CCc3ccccc32)[nH]c(=O)n1Cc1ccc(F)cc1,inactive: 7%
5,COc1ccc(S(=O)(=O)NCC2CCC(C(=O)N3CCC4(CC3)OCCO4)CC2)cc1 (stereo unspecified),inactive: 3%
6,CCOCC(=O)Nc1c(C(=O)OCC)oc2ccccc12,inactive: 1%
7,CCC(=O)c1ccc(OCC(O)CN2C(=O)NC(C)(C)C2=O)cc1 (stereo unspecified),inactive: -4%
8,Cn1cnnc1SCC(=O)Nc1sc2c(c1C#N)CCCCC2,inconclusive
9,COc1ccc(CCNC(=O)c2nnn(-c3ccc4c(c3)OCCO4)c2N)cc1OC,inconclusive
10,CCn1c(=O)cc(OCC(=O)Nc2ccc(Cl)cn2)c2ccccc21,inactive: 2%
11,O=C(CSc1nnc(Cn2c(=O)sc3ccccc32)n1CCc1ccccc1)N1CCCC1,inconclusive
12,COc1cccc2cc(C(=O)N3CCN(C45CC6CC(CC(C6)C4)C5)CC3)c(=O)oc12,inconclusive
13,CCOC(=O)N1CCN(c2c(NCCCN(CC)Cc3ccccc3)c(=O)c2=O)CC1,inactive: 4%
14,O=C1CN(CC(=O)N2CCCCC2)c2ccccc2O1,inconclusive
15,COc1cccc(CNC(=O)C2CCN(c3cnccn3)CC2)c1,inactive: -2.5%
16,COc1ccc(NC(=O)CC2Oc3ccc(C)cc3NC2=O)cc1 (stereo unspecified),inconclusive
17,CCc1ccccc1NC(=O)c1nnn(CC(=O)Nc2cccc(C)c2)c1N,inconclusive
18,CC(C)(C)NC(=O)C1CCCN(S(=O)(=O)c2cccc3cccnc23)C1 (stereo unspecified),inactive: 1%
19,COC(=O)Cn1c(=O)c2c(nc3n2CC(C)CN3c2ccc(C)c(C)c2)n(C)c1=O (stereo unspecified),inactive: 4%
20,Cc1ccc(C(=O)CC(C(=O)O)c2cn(CCC#N)c3ccccc23)cc1 (stereo unspecified),inactive: -2%
21,ON1C2CCCCC2N(O)C1c1c(F)c(F)c(F)c(F)c1F (stereo unspecified),inactive: 1%
22,O=C(CCC1N=C2c3ccccc3N=C(SCc3cccc(Cl)c3)N2C1=O)NCc1ccco1 (stereo unspecified),inconclusive
23,COC(=O)C1=C(C)OC(N)=C(C#N)C1c1cc(OC)ccc1OC (stereo unspecified),inactive: -3%
24,COc1ccc(-c2nc(CSCC(=O)N3CCN(C(=O)c4ccco4)CC3)c(C)o2)cc1OC,inactive: -6%
